Assay results: article PMC10163288
The list shows a part of the results.

B1: il2ra_site2_3nfp_sap_18_mot_HHH_b1_03873_000000295_0001_37_55_H_._3e7f9dc7757c9be4a21a7eaad61dbf0f_0001_1_0001_0000300022_0000001_0_0001 (protein)
chain: NEHLVEEAIELAEELGDPEVAEVLEKLLEEARRTNDPKLRTAVAALAALVRWDPEYAKEAAALYK
B2: il2ra_site1_1z92_sap_11_mot_HHH_b1_00784_af2_000000189_0001_1_17_H_._HHH_b1_07621_af2_0001_0000200027_0000001_0_0001_af2pred_0001_af2pred_1_swapped (protein)
chain: SEVEETLHEAVEKNDEELLKRFIEIALRAAGDPKLVEKFLEILVKRLGLPPEVLERLRELLEELT
B3: il2ra_site2_3nfp_normal_mot_HHH_b1_05627_af2_000000038_0001_43_56_H_._HHH_b2_04217_0001_0000500030_0000001_0 (protein)
chain: SSSSDKAERYLEAALLLLEEAKEAGDEESAREIAEAALLLAENLGDEERFEQIREILEELSSSSS
B4: il2ra_site1_2b5i_normal_mot_HHH_b1_01495_af2_000000272_0001_42_56_H_._HHH_b1_06086_0001_0000200018_0000001_0_af2pred_dldesign_0_af2pred (protein)
chain: SSSSDEKYDELYDLVLEALRLKKAGKKEEALKKLEEALKLAKELGDEKLVKEIEYLLNLLKSSSS
B5: il2ra_site2_3nfp_sap_17_mot_HHH_b2_04319_af2_000000252_0001_42_56_H_._HHH_b2_08127_0001_0000100001_0000001_0_0001 (protein)
chain: SSSSDEEAEELVRMALRALERLLRRGDEEMVELTEEYLEAAIKLHNDEEAEELLEELKKEYSSSS
B6: il2ra_site1_1z92_sap_14_mot_HHH_b1_02241_000000292_0001_1_14_H_._HHH_b2_08217_0001_0000300021_0000001_1_0001 (protein)
chain: SSSSTREATRLVLEIVAKVAREFNLSEEELLELIKLADELLRKGYSEEEIEEILRELAEKSSSSS
B7: il2ra_site2_3nfp_sap_14_mot_HHH_b1_00159_af2_000000185_0001_1_18_H_._HHH_b2_01146_0001_0000200016_0000001_0_0001 (protein)
chain: SSSSDDAEEYLRAALALAREAIEEGDKELAEKILRLIAKAAEDAKDEEALKEAEELLKEVGSSSS
B8: il2ra_site2_3nfp_normal_mot_HHH_b1_00660_af2_000000090_0001_40_57_H_._HHH_b1_08382_0001_0000600040_0000001_0_af2pred_0001_af2pred (protein)
chain: SSSSSSEEVEELIRQAEELLKEGNPEEAEELLRRAAHLAAELGDFELFTLIHAALEEVEHSSSSS
B9: il2ra_site1_1z92_sap_19_mot_HHH_b1_03465_af2_000000044_0001_40_52_H_._HHH_b1_05000_af2_0001_0000600027_0000001_0_0001_af2pred_0001_af2pred_1 (protein)
chain: SEELREEAERLAGGDPELALLIFDALFALKNGVPPRDIELVLKNAAELSGIPPEKVEEALELAEP
B10: il2ra_site1_2b5i_normal_mot_HHH_b2_04910_000000118_0001_1_19_H_._HHH_b2_01005_0001_0000600047_0000001_0_af2pred_dldesign_0_af2pred (protein)
chain: SSSSSPEGKKLRELFEKAEELFKAGKPEEAKKVLEEALELAKKLGMTSMLKMIESALKEISSSSS
B11: il2ra_site1_3nfp_normal_mot_HHH_b2_05101_000000267_0001_1_16_H_._ems_3hM_201_0001_0001100032_0000001_1 (protein)
chain: DRESAEASDLLIKVAAKLQNRNVDPEEVERVIQEVAEELREEIQNPEAREAVQFAAEFLIERVCS
B12: il2ra_site2_3nfp_sap_22_mot_ems_p1-15H-GBL-16H-GBL-14H_0089_0001_0001_0001_af2_000000072_0001_19_33_H_._HHH_b2_04595_0001_0000100001_0000001_0_0001 (protein)
chain: SSSSSSDEEEIEELLELVEKIDNRDERAHALMEASELAARLGDEELAREVLRLFAEIQSSSSSSS
B13: il2ra_site1_3nfp_sap_16_mot_HHH_b1_00461_af2_000000238_0001_1_17_H_._HHH_b2_08025_0001_0000300024_0000001_0_0001_af2pred_0001_af2pred_swapped (protein)
chain: SSSSSRILRFLEELARKAFERNDKKQLEAILKLIRKAAKQFKDEEVEELLELVEELLKKLSSSSS
B14: il2ra_site2_2erj_sap_22_mot_HHH_b1_00004_000000238_0001_1_17_H_._d9cc8bee132a485d0ac603caa35b40b0_0001_0001_0000400014_0000001_0_0001_af2pred_0001_af2pred (protein)
chain: SSSSSSEEVRRRVEELLEEAKKIEDYHEAFKVLQEASQIADEYDDEEIARLVHEVVRELSSSSSS
B15: il2ra_site2_2erj_sap_19_mot_d66c371ed59d2564589b99897c04b328_0001_000000241_0001_17_32_H_._2092974533909c8578d6a2c5de6c41b7_0001_1_0001_0000300016_0000001_0_000 … (protein)
chain: SSSSSSDIEERVEELLEEAKRIKDLREALRVLQEASQLADEQDDEELFEEITKVLRKLSSSSSSS
B16: il2ra_site1_1z92_normal_mot_HHH_b1_01565_af2_000000147_0001_1_17_H_._HHH_b2_00438_0001_0000400057_0000001_0 (protein)
chain: SSSSSTAVEAAAKAVAQAAGLSEEQEEELEKLARELLEEGYSELEILKILDERALELLESSSSSS
B17: il2ra_site1_1z92_sap_27_mot_HHH_b2_03302_000000138_0001_21_37_H_._HHH_b1_05567_0001_0000100001_0000001_0_0001_af2pred_dldesign_0_af2pred (protein)
chain: SSSSSSDKKEAVRLFNEANELCLAGKDEEAKEKLKKALELAKKAGANLLARMIELALKSLSSSSS
B18: il2ra_site1_3nfp_normal_mot_7cbdf275c6f204f9d60ac8802deb44b6_0001_1_000000034_0001_19_33_H_._HHH_b1_00853_af2_0001_0000200008_0000001_0 (protein)
chain: SSSSSRALEFAEELARKAFENNNEEQLRHLEKLVERALKQVGDPEAEELLKLIRELLEELSSSSS

target: il2ra, P01589; assay: yeast display titration

Apparent Kd, inactive:
B1 no binding seen, B2 no binding seen, B3 no binding seen, B4 no binding seen, B5 no binding seen, B6 no binding seen, B7 no binding seen, B8 no binding seen, B9 no binding seen, B10 no binding seen, B11 no binding seen, B12 no binding seen, B13 no binding seen, B14 no binding seen, B15 no binding seen, B16 no binding seen, B17 no binding seen, B18 no binding seen
